This is an account of results in doi:10.1101/2023.12.15.570541.

For assay [1], the target named is T1, MFSD1-strep (mouse Major Facilitator Superfamily Domain Containing 1 with N-terminal Twin-Streptavidin-tag) (mouse) (UniProt Q9DC37).
T1 sequence: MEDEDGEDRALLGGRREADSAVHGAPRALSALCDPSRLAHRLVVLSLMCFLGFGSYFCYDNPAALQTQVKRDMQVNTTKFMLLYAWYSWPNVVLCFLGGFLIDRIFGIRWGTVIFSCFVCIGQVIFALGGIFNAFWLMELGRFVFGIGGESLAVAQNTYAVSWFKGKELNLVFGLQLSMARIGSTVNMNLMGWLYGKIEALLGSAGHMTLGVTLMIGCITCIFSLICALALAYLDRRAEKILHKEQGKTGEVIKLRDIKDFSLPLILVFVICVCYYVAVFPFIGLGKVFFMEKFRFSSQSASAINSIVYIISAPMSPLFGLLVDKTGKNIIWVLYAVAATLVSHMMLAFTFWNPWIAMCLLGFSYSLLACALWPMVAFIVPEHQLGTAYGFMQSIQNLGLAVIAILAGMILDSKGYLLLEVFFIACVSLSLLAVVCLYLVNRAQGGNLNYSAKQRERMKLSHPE
The experiment in a line: tandem affinity co-purification + SEC.

The target in assay [2] is T1, MFSD1-strep (mouse Major Facilitator Superfamily Domain Containing 1 with N-terminal Twin-Streptavidin-tag) (mouse). The experiment in a line: pull-down.
The target in assay [3] is T2, MFSD1 as it stands in the GLMP-MFSD1 fusion (cryo-EM structure) (mouse) (UniProt Q9DC37).
T2 sequence: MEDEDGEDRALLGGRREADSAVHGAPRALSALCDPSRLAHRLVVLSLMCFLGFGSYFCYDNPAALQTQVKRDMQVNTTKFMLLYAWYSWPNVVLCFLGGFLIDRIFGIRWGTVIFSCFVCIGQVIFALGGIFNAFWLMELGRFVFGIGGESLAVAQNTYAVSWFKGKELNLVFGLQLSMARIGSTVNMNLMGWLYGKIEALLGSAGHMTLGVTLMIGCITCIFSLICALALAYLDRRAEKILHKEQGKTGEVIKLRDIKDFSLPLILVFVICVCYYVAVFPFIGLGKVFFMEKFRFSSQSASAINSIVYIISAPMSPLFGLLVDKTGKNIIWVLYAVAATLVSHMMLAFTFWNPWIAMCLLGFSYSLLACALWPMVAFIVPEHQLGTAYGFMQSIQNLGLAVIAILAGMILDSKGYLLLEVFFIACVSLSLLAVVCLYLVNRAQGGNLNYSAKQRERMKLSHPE
Kind of assay: cryo-EM structure.

These are yes or no findings as the source states them, for the method shown. For part of these data: Binding seen in cells or lysates may run through a third protein. Some results given as binding are weak or reduced against the parent protein; the word gives no strength. Where a sequence is shown, tags or fusion partners need not be part of it.

B1: GLMP-Ct-His-GFP (mouse Glycosylated Lysosomal Membrane Protein with C-terminal TEV site, GFP and 8xHis) (protein, UniProt Q9JHJ3 36-404)
chain: EETRQVSMEVISGWPNPQNLLHIRAVGSNSTLHYVWSSLGPPAVVLVATNTTQSVLSVNWSLLLSPDPAGALMVLPKSSIQFSSALVFTRLLEFDSTNASEGAQPPGKPYPPYSLAKFSWNNITNSLDLANLSADFQGRPVDDPTGAFANGSLTFKVQAFSRSGRPAQPPRLLHTADVCQLEVALVGASPRGNHSLFGLEVATLGQGPDCPSVNERNSIDDEYAPAVFQLNQLLWGSSPSGFMQWRPVAFSEEERARESALPCQASTLHSTLASSLPHSPIVQAFFGSQNNFCAFNLTFGAPTGPGYWDQYYLCWSMLLGMGFPPVDIFSPLVLGIMAVALGAPGLMFLGGGLFLLLRHRRYSEYQSIN
modifications: N-glycosylated
Consider B1, for which the binding result in assay [1] and in assay [2] was “binds” each time.

B2: GLMP as it stands in the GLMP-MFSD1 fusion (cryo-EM structure) (protein, UniProt Q9JHJ3 36-391)
chain: EETRQVSMEVISGWPNPQNLLHIRAVGSNSTLHYVWSSLGPPAVVLVATNTTQSVLSVNWSLLLSPDPAGALMVLPKSSIQFSSALVFTRLLEFDSTNASEGAQPPGKPYPPYSLAKFSWNNITNSLDLANLSADFQGRPVDDPTGAFANGSLTFKVQAFSRSGRPAQPPRLLHTADVCQLEVALVGASPRGNHSLFGLEVATLGQGPDCPSVNERNSIDDEYAPAVFQLNQLLWGSSPSGFMQWRPVAFSEEERARESALPCQASTLHSTLASSLPHSPIVQAFFGSQNNFCAFNLTFGAPTGPGYWDQYYLCWSMLLGMGFPPVDIFSPLVLGIMAVALGAPGLMFLGGGLFLL
modifications: N-glycans on Asn85, Asn94, Asn157, Asn228 and Asn331
As for B2, the binding entry in assay [3] is recorded as “binds”.
